Results on two molecules are retold here after article PMC4196738.

These are yes or no findings as the source states them, for the method shown. In cells and extracts the contact can be indirect. Some results given as binding are weak or reduced against the parent protein; the word gives no strength. Tags and fused reporters may be left off the sequences shown.

Assay [1] addresses T1, Emc1 tagged with a Venus fragment (PCA strain) (S. cerevisiae) (UniProt P25574).
T1 sequence: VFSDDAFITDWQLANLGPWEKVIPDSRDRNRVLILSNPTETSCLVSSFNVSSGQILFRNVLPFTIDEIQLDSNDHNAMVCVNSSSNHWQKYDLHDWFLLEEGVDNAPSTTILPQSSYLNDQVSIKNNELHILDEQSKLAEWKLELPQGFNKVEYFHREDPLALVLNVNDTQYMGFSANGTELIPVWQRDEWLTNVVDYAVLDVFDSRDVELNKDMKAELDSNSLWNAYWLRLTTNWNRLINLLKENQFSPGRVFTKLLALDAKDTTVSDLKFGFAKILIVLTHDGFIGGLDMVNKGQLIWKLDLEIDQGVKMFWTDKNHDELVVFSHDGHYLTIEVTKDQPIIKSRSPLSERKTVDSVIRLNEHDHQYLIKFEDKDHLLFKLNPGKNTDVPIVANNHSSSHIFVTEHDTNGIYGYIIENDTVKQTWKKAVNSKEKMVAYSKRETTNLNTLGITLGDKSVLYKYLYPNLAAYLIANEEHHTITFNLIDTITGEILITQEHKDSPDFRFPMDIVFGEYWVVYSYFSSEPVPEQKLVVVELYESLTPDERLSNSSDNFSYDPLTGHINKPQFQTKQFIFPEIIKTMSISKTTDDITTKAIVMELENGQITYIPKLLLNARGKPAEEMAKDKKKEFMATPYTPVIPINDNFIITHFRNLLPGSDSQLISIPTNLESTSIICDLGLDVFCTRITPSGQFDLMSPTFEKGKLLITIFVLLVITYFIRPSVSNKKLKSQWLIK
Nature of the assay: split reporter; Venus–YFP protein-fragment complementation assay (PCA); proteins tagged with VF1 or VF2, strains crossed, haploid meiotic progeny with both alleles; log phase live yeast imaged by confocal microscopy.

The target in assay [2] is T2, Emc2 fused to GFP (S. cerevisiae) (UniProt P47133).
T2 sequence: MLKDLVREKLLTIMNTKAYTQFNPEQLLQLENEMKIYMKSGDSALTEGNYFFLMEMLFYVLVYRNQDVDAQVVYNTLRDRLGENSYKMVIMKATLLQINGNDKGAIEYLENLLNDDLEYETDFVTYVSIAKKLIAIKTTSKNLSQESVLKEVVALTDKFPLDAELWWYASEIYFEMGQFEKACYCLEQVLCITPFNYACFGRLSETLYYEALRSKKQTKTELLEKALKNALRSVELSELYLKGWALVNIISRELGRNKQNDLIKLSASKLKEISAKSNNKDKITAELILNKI
Put plainly: co-IP; lysates (250 mM NaCl, 50 mM Tris-HCl pH 7.4, 0.1% NP-40) of yeast expressing GFP-tagged Emc protein and galactose-induced TAP–Tom5; GFP–Trap_A beads, 1 h at 4°C; blotted with anti-TAP and anti-GFP; TAP–Tom5 repressed in dextrose as control.

Assay [3] has as its target T3, Emc1 fused to GFP (S. cerevisiae) (UniProt P25574).
T3 sequence: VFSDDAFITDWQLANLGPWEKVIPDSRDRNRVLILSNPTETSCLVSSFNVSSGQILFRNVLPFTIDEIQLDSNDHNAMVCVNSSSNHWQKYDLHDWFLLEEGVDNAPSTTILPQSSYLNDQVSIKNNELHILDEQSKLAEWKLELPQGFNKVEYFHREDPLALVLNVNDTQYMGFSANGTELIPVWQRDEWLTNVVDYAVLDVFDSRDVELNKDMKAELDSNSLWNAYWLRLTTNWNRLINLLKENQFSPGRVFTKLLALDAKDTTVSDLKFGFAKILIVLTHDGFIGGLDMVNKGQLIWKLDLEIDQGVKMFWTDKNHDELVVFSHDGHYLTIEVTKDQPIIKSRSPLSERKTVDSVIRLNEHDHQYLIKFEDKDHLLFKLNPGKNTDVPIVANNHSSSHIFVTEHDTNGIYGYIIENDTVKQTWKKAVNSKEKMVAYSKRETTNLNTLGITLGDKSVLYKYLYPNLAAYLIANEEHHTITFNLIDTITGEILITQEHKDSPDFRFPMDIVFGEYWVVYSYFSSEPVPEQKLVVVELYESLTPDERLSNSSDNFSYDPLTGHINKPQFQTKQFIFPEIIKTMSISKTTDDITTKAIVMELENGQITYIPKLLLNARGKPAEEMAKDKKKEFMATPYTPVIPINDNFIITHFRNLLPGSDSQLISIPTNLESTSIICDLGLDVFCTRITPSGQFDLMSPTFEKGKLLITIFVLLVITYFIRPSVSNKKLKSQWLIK
The description is as above.

Assay [4] addresses T4, Emc5 fused to GFP (S. cerevisiae) (UniProt P40540).
T4 sequence: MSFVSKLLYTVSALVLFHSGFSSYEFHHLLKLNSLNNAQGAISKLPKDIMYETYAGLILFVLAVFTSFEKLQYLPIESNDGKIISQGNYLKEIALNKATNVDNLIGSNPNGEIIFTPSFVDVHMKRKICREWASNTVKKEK
Described as above.

As to MFGLPQQEVSEEEKRAHQEQTEKTLKQAAYVAAFLWVSPMIWHLVKKQWK (peptide, UniProt P80967 1-50) [Tom5 tagged with VF1 (PCA strain)], the binding entry in assay [1] was “binds”.
For the molecule MFGLPQQEVSEEEKRAHQEQTEKTLKQAAYVAAFLWVSPMIWHLVKKQWK (peptide, UniProt P80967 1-50) [TAP–Tom5], the binding result in assay [2], in assay [3] and in assay [4] was “binds” each time.
